Results reported in paper PMC12408003.
These are yes or no findings as the source states them, for the method shown. Binding seen in cells or lysates may run through a third protein. Some results given as binding are weak or reduced against the parent protein; the word gives no strength.

Protein sequences, listed by entry. Tags and fused reporters are not part of them.
UniProt P63073: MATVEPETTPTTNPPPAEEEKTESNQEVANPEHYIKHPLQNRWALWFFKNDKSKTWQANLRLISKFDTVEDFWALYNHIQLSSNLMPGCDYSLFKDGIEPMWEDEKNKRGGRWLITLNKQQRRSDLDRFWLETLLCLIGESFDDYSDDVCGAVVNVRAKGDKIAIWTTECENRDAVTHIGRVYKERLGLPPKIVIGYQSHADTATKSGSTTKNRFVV
UniProt Q7TMB8: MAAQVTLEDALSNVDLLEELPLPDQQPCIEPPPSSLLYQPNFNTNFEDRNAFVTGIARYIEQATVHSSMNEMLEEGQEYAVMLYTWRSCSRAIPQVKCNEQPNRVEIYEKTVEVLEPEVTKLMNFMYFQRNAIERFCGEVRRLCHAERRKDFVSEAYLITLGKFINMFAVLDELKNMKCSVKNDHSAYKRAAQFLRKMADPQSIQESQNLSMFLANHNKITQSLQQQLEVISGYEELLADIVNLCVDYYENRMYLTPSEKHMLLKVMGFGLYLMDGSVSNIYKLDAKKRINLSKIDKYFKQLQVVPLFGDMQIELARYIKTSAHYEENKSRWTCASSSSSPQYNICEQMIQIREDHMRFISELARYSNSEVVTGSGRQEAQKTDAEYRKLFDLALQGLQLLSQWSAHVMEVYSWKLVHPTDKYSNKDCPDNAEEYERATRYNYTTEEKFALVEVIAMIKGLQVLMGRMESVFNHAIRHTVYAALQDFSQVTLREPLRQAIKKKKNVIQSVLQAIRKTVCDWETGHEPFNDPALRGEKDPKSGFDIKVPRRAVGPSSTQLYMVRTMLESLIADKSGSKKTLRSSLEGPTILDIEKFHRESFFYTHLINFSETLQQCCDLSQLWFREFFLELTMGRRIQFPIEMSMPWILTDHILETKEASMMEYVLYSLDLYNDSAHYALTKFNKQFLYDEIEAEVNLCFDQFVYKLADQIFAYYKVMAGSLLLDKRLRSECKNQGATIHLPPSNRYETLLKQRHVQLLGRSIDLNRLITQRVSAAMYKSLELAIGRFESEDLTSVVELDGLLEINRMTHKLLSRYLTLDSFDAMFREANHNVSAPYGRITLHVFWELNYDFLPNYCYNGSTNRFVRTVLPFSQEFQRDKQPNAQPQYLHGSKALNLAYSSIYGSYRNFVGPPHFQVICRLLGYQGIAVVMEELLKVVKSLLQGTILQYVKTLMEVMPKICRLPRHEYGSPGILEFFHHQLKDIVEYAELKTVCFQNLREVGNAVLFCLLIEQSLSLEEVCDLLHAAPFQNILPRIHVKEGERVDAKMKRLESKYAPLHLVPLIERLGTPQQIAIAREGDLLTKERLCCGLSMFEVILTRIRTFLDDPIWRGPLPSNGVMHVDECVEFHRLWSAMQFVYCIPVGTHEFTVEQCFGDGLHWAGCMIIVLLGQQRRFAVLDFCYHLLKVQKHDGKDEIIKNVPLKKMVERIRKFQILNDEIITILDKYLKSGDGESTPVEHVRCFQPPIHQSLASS

Tests used:
[1] = target: eIF4E (mouse (endogenous in hippocampus and primary hippocampal neurons)) (UniProt P63073); assay: co-IP; cultured neurons with lentiviral shRNA to Eif4g1 or control non-targeting shRNA (Supplemental Fig. 15; legend not shown)
[2] = target: eIF4E (mouse (endogenous in hippocampus and primary hippocampal neurons)) (UniProt P63073); assay: co-IP; hippocampal tissue lysates of WT, Fmr1 KO and Fmr1 KO + Rilmenidine mice; immunoprecipitated with an anti-eIF4E antibody overnight at 4°C, Protein A/G agarose; blotted for eIF4E, eIF4G1 and CYFIP1; naive IgG as negative control

In the case of “cytoplasmic FMRP-interacting protein 1 (CYFIP1) (from UniProt Q7TMB8 1-1253)”, the binding [1] is reported as “binds” and the binding [2] is reported as “binds”.
